Patent US20260008839A1 (BRIGHAM AND WOMEN S HOSPITAL, published 2026)
These are yes or no findings as the source states them, for the method shown. Some binding calls cover weakened binding; strength is not graded here.

Chains of the proteins cited; added tags and fusions are not shown. Residues count along the entry.
UniProt Q9NR61, residues 27-529: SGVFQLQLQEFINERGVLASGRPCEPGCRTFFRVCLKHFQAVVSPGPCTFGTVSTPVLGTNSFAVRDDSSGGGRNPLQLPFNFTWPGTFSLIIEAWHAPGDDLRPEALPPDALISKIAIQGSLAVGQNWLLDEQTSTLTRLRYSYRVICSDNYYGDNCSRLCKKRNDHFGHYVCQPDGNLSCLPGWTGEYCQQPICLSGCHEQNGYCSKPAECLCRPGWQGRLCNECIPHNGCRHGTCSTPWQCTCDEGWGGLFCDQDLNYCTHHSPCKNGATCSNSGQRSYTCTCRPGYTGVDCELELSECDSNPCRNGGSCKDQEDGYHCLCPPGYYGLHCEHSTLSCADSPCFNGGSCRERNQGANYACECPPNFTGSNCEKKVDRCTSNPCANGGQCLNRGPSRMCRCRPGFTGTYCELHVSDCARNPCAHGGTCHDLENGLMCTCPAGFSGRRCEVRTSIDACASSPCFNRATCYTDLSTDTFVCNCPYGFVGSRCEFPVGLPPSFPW

Assays:
Dll4 [1] = assay: flow cytometry, blocking: DLL4-expressing HEK293T cells + purified antibody, then NOTCH1-Fc and PE anti-IgG Fc; blocked ligand NOTCH1-Fc; three experiments
porcine DLL4 (porcine) [2] = assay: SPR, Biacore 3000, 25 C: porcine DLL4 amine-coupled to a CM5 chip, antibody injected as analyte
Dll4 [3] = assay: flow cytometry, blocking, hybridoma supernatants; sheet title as in FIG. 1, legend paragraph 45 names no cells; blocked ligand NOTCH1-Fc as in FIG. 1
Dll4 [4] = assay: flow cytometry, blocking: DLL4-expressing Cf2Th cells + purified antibody, then NOTCH1-Fc and PE anti-IgG Fc; blocked ligand NOTCH1-Fc; three experiments
porcine DLL4 (porcine) [5] = assay: SPR, Biacore 3000, 25 C: porcine DLL4 amine-coupled to a CM5 chip, 8D2 injected three times first, then 8C2
Dll4 [6] = assay: flow cytometry, blocking: DLL4-expressing Cf2Th cells + purified 8C2, then recombinant NOTCH1-Fc and PE anti-IgG Fc; blocked ligand NOTCH1-Fc
Dll4 [7] = assay: flow cytometry, blocking: DLL4-expressing Cf2Th cells + supernatant, then NOTCH1-Fc and PE anti-IgG Fc; blocked ligand NOTCH1-Fc; three determinations merged
Dll4 [8] = assay: flow cytometry, blocking: DLL4-expressing HEK293T cells + purified 8C2, then recombinant NOTCH1-Fc and PE anti-IgG Fc; blocked ligand NOTCH1-Fc
human DLL4 (human) [9] = target: human DLL4 (human) (UniProt Q9NR61); assay: SPR Biacore 3000, human DLL4 amine-coupled to CM5 chip, antibody injected
porcine DLL4 (porcine) [10] = assay: SPR Biacore 3000, porcine DLL4 amine-coupled to CM5 chip, antibody injected
human DLL4 (human) [11] = target: human DLL4 (human) (UniProt Q9NR61); assay: SPR, Biacore 3000, 25 C: human DLL4 amine-coupled to a CM5 chip, antibody injected as analyte
Dll4 [12] = assay: flow cytometry, blocking: DLL4-expressing Cf2Th cells + 8D2 supernatant ('serum'), then recombinant NOTCH1-Fc and PE anti-IgG Fc; blocked ligand NOTCH1-Fc
human DLL4 (human) [13] = target: human DLL4 (human) (UniProt Q9NR61); assay: SPR Biacore 3000, full kinetics, conclusion

Measured: binding

B1: Monoclonal Antibody 8C2 (antibody, V domains shown)
VH: QVQLKESGPGLVQPSQTLSLTCTVSGISISIYGVSWVRQPPGKGLEWMGGIWGDGSTDYNSALKSRLSLSRDTSKSQVFLKMNSLQTEDTAIYFCTLSGDFDYWGHGVLVTVSS
VL: DIQLTQSPASLSASLDEIVTITCQASLDIGNWLAWYQQKTGKSPQLLIYGATSLAGGVPSRFSGSRSGTQYSLKISKLQVEDTGIYYCLQHYRAPFTFGSGTKLEI
notes: Rat hybridoma monoclonal antibody, IgG type (captured by goat anti-rat Fc); also called BMH-8C2-D10; BMH-8C2-D4
not listed: human DLL4 (human) [9] | porcine DLL4 (porcine) [10] | human DLL4 (human) [11] | Dll4 [12] | human DLL4 (human) [13]
binds: all other assays above

B2: 5D7 (antibody, V domains shown)
VH: QVQLKESGPGLVQPSETLSLTCTVSGFSLTRYAVNWVRQPPGKGLEWMGRVMDDGDTSHNSALNSRLNISRDTSKNQVFLKMNSLQTEDPGTYFCAREGDGFSWYGMDAWGQGTSVTVSS
VL: DIVLTQSPALAVSLGQRATISCRASQSVSISSYNLMQWYQQKPGHQPKLLVYAASNLASGIPARFSGSGSGTDFALTIDPVQADDVATYHCQQSKDHPPTFGGGTKLELK
binds: Dll4 [3] | Dll4 [7]

B3: Monoclonal Antibody 2H10 (antibody, V domains shown)
VH: QVQVKESGPGLVQPSQTLSLTCIVSGFSLSSYHVSWVRQPPGKSLVWMGTIWAGGGTNYNSAVQSRLSISRDTSKSQVFLKVNSLQPEDTGTYYCARHYYDGYYHGPYFDYWGQGVMVTV
VL: SPASLSASLGETVTFECRASEDIYTNLAWYQQKPGNSPQLLIYDANTLADGVPSRFSGSGSGTQFSLKINSLQSEDVASYFCQQYDSYPWTFGGGTKLELRR
notes: Rat hybridoma monoclonal antibody, IgG type (captured by goat anti-rat Fc); also called BMH-2H10-A7
binds: Dll4 [3] | Dll4 [4] | Dll4 [7]

B4: Monoclonal Antibody 8D2 (antibody, V domains shown)
VH: SGGGLVQPGRSMKLSCAASGFTFSNYDMAWVRQDPKKGLEWVATISYDGRSTYYRDSVKGRFTISRDNAKSTLYLQMDSLRSEDTATYYCKDYDGHYHPYGMEAWGQGISVTVSS
VL: DIVLTQSPALAVTLGQRATISCRASQSVTISNYNLMQWYQQRPGRQPKLLIYDASNLASGIPARFSGSGSGTDFTLTIDPVQADDIATYYCQQSRDDPRTFGGGTKLELR
notes: Rat hybridoma monoclonal antibody, IgG type (captured by goat anti-rat Fc); also called BMH-8D2-D10; rat 8D2
not listed: porcine DLL4 (porcine) [5] | Dll4 [6] | Dll4 [8]
binds: all other assays above
